These results are taken from PMC9122598, “NASP maintains histone H3–H4 homeostasis through two distinct H3 binding modes” (Nucleic Acids Research, 2022).

The chains behind the UniProt entries cited, without tags or fusion partners.
UniProt Q9NVP2: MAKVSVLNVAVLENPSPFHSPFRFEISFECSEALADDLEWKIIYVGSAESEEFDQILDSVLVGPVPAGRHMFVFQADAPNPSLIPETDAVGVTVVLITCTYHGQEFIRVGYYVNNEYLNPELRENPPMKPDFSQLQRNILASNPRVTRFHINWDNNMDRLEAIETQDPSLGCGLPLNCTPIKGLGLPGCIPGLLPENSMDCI
UniProt O14929: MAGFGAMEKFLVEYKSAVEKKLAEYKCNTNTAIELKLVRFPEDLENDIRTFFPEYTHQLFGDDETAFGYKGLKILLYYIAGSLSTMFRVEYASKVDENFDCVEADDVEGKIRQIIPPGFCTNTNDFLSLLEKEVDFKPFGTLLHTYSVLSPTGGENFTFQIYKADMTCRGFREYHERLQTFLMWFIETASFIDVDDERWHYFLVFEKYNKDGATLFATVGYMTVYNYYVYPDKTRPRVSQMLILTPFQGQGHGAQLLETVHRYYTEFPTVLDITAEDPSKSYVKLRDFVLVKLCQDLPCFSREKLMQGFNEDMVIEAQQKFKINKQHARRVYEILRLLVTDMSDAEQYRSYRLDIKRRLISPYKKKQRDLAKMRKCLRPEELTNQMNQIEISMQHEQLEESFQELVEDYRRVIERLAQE

Results are given in words; binding and its absence hold for the method and conditions named. For some of these results: In cells and extracts the contact can be indirect. Some entries that bind do so weakly or less than the wild type.

The target of assay [1] is sNASP-TwinStrep-HA E177A W180A D181A (human) (UniProt P49321). The experiment in a line: co-IP; sNASP-Strep-HA captured on MagStrep beads from soluble extracts of doxycycline-induced HeLa S3, washes 150 mM NaCl, biotin elution; western blot. (In general: In western blotting, separated proteins are transferred to a membrane and probed.)
The target in assay [2] is budding yeast Hif1p (Saccharomyces cerevisiae) (UniProt Q12373). Briefly: ITC; Hif1p titrated with the H3 αN or H3 α3 peptide; performed in the same way as for sNASP; both purified. In general terms: Isothermal titration calorimetry measures the heat released or taken up as one component is titrated into another.
The target of assay [3] is sNASP-FLAG-Myc (wt) (human) (UniProt P49321). Briefly: co-IP; sNASP-FLAG-Myc precipitated with anti-Flag M2 beads from soluble extracts (300 mM NaCl, 0.05% NP40) of transiently transfected HeLa S3, washes 150 mM NaCl; western blot.
For assay [4], the target named is sNASPc 6E monomer (V265E I272E L282E V286E I300E L307E) (human) (UniProt P49321). Briefly: SEC-MALS; single purified protein on Superdex 200 Increase 10/300 GL; 20 mM Tris pH 7.5, 0.5 M NaCl; room temperature; both purified. (In general: In gel filtration, larger molecules generally elute earlier.)
Assay [5] has as its target sNASPc V265E I272E L282E V286E I300E L307E (human) (UniProt P49321). The experiment in a line: SEC; gel filtration at purification, HiLoad 16/600 Superdex 200, 20 mM Tris pH 7.5, 0.5 M NaCl; sNASPc peaks re-run on Superdex 200 Increase in 50 mM Tris pH 7.5, 0.2 M NaCl; both purified.
Assay [6] shares this target. The experiment in a line: SEC-MALS; purified monomer-peak fraction of sNASPc, and the 6E mutant, […], Superdex 200 Increase 10/300 GL, 20 mM Tris pH 7.5, 0.5 M NaCl, room temperature; both purified.

For the substance “ASF1b (endogenous) (from UniProt Q9NVP2 1-202)”, the binding result in assay [1] is “no binding”.

In the case of “H3 α3 (a.a. 116–135) peptide (from UniProt P84243 117-136)”, in assay [2], the binding entry is “no binding”.

For “HAT1 (endogenous) (from UniProt O14929 1-419) (enzyme)”, the binding entry in assay [1] is “no binding”.

Regarding “endogenous tNASP (from UniProt P49321-1 1-788)”, the binding result in assay [3] is recorded as “binds”.

For “sNASPc 6E monomer (V265E I272E L282E V286E I300E L307E) (from UniProt P49321-2 30-340) (domain or fragment)”, the binding result in assay [4] was “no binding (tested: 1.5 mg/mL, 100 μL injected)”.

Turning to “sNASPc V265E I272E L282E V286E I300E L307E (from UniProt P49321-2 30-340) (domain or fragment)”, the binding entry in assay [5] was “no binding”; in assay [6], “no binding (tested: 1.5 mg/mL)”.
